Test results published in patent publication US20090269281A1, “Calcium/Calmodulin-Dependent Protein Kinase Kinase as a Control Point for Cardiac Hypertrophy” (University of North Texas Health Science Center at Fort …, priority 2007, published 2009).
These are yes or no findings as the source states them, for the method shown. For some of these results: In cells and extracts the contact can be indirect. Some results given as binding are weak or reduced against the parent protein; the word gives no strength.

Protein sequences, listed by entry. Tags and fused reporters are not part of them. Lines headed by an entry give the natural chain unless they say otherwise; changes in a name come on top. Chains listed by the source or under a name are the forms on record and can include a tag or linker.
histone deacetylase 5 (HDAC5) (A0A8I6G4R8, form named): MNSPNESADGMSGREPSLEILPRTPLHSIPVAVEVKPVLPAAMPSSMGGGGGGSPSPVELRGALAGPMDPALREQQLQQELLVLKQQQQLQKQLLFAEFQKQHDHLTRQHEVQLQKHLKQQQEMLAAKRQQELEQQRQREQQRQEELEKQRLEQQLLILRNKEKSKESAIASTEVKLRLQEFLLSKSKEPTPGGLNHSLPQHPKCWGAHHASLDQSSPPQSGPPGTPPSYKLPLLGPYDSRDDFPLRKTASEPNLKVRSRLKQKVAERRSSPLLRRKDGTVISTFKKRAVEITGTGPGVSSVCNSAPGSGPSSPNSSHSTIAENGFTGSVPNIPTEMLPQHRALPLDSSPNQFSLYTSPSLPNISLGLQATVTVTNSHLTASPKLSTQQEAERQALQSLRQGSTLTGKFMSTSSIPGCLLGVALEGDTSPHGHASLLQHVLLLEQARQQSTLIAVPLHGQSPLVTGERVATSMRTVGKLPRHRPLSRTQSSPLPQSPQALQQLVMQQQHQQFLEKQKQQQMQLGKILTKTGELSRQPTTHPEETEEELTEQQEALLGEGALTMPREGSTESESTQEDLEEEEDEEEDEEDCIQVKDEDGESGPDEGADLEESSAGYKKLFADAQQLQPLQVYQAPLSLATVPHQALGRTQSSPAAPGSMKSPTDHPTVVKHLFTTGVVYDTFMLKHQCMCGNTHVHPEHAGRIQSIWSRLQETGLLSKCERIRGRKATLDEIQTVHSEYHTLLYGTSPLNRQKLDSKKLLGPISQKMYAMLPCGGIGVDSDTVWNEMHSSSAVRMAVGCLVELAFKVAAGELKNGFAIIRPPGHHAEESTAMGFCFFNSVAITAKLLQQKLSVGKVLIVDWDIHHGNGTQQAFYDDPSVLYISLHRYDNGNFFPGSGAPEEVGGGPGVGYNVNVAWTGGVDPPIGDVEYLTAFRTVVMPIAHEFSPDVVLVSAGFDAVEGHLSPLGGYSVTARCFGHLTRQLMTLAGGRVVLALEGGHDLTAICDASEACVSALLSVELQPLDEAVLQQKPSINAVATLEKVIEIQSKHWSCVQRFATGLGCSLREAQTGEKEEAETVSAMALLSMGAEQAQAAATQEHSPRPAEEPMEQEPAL

Legend:
14-3-3β (rat) [1] = target: T1, 14-3-3β (rat) (UniProt P35213); test: co-immunoprecipitation from cardiomyocyte lysates, western blot
T1 sequence (looked up): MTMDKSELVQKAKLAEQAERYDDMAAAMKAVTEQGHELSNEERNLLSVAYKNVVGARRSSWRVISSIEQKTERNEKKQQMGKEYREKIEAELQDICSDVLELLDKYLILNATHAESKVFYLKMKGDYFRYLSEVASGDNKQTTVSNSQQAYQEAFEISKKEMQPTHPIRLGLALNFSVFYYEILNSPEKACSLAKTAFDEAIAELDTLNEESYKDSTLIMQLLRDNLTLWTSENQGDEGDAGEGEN

14-3-3β (rat) [2] = target: T1, 14-3-3β (rat); test: immunoprecipitation of 14-3-3β after STO-609, SB203580 or U0126 pretreatment and UII, HDAC5 western blot
14-3-3β (rat) [3] = target: T1, 14-3-3β (rat); test: pull-down of 14-3-3β with specific antibody and protein G agarose from AdUIIR-infected cardiomyocyte lysates, HDAC5 western blot
14-3-3β (rat) [4] = target: T1, 14-3-3β (rat); test: immunoprecipitation of 14-3-3β from whole cell lysates, western blot for coimmunoprecipitated HDAC5

Measured: binding

histone deacetylase 5 (HDAC5) (from UniProt A0A8I6G4R8 1-1114) (enzyme)
binds: all assays above
